These are yes or no findings as the source states them, for the method shown. In cells and extracts the contact can be indirect. Some binding calls cover weakened binding; strength is not graded here.
Molecular target: mortalin, endogenous in BCG-infected RAW macrophages (mouse (endogenous in RAW 264.7)) (UniProt P38647)
Experiment: co-IP

Chains of the proteins cited; added tags and fusions are not shown. Residues count along the entry.
UniProt P38647, residues 47-679: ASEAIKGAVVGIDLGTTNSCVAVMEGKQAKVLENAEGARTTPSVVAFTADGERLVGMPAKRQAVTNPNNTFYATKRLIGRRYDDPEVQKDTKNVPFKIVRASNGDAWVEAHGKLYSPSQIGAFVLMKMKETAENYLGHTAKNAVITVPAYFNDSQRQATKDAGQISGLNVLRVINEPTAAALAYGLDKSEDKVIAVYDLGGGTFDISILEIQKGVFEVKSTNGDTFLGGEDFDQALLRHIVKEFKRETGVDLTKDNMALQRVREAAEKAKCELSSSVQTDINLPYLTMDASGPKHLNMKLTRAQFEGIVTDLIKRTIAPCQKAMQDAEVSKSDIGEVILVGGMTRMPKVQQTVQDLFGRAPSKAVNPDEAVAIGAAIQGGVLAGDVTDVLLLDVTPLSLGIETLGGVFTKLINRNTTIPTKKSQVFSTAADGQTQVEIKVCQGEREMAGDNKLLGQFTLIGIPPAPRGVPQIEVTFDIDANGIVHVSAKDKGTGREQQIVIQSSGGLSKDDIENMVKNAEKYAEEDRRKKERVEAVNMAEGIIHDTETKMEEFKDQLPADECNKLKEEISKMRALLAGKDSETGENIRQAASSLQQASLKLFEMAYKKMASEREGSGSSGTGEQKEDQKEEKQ
UniProt A1KFR2: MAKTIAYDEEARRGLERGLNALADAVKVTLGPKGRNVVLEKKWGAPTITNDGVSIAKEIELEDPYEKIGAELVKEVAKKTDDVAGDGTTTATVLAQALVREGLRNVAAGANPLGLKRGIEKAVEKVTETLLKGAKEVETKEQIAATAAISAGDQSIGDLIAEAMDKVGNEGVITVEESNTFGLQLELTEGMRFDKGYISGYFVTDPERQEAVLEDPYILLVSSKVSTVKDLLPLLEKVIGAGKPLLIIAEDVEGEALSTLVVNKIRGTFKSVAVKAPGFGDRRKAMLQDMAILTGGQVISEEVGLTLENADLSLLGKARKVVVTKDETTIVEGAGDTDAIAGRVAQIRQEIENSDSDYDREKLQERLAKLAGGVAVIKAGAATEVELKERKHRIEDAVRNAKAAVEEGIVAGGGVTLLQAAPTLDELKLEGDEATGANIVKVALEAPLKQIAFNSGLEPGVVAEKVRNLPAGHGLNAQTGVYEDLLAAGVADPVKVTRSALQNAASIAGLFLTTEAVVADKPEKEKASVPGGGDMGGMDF

Cpn60.2 of M. bovis BCG in infected macrophages (from UniProt A1KFR2 1-540)
binding: binds

— article PMC5399554
